The supplement of paper PMC10849652
The list shows a part of the results.

By UniProt entry, the sequences of proteins in these tests, tags left out. Where a name states a change or a piece, a line headed by the entry shows the natural chain unless it says otherwise.
UniProt Q9NU53: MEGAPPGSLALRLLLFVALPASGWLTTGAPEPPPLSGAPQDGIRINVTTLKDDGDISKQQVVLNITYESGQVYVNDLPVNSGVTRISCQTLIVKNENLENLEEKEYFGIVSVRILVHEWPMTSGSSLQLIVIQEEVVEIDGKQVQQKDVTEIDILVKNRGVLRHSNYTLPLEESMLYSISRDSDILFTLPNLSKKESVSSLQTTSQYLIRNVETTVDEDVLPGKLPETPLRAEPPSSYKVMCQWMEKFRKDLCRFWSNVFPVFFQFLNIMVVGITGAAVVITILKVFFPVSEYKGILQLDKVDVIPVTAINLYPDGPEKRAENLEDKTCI
UniProt Q9BRT9, whole entry, looked up: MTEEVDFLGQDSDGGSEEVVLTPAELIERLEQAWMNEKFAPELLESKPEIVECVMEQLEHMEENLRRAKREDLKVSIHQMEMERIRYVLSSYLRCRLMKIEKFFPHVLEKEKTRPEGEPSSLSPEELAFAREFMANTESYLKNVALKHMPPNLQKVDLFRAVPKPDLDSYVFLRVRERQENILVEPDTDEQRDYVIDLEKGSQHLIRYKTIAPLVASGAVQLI
UniProt Q8N335: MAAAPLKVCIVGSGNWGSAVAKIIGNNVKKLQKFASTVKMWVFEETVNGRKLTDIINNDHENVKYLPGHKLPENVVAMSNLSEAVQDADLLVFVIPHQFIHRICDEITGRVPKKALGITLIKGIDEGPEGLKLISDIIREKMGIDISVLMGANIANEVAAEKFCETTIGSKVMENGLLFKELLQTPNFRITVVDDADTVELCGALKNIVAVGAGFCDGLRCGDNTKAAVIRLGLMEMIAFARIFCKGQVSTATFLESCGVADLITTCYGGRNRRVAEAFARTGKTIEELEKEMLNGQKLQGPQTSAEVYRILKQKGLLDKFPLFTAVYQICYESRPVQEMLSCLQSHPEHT
UniProt P60983, whole entry, looked up: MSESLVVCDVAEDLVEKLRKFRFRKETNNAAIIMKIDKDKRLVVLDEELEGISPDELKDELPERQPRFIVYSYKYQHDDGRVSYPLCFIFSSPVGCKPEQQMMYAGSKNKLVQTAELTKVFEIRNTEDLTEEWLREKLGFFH
UniProt Q9BRX5: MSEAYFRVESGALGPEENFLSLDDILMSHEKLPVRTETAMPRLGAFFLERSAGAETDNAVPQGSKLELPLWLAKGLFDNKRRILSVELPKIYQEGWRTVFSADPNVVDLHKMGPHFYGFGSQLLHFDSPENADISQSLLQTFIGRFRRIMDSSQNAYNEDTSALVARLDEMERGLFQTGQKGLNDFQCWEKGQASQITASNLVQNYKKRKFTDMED
UniProt Q9UKJ3: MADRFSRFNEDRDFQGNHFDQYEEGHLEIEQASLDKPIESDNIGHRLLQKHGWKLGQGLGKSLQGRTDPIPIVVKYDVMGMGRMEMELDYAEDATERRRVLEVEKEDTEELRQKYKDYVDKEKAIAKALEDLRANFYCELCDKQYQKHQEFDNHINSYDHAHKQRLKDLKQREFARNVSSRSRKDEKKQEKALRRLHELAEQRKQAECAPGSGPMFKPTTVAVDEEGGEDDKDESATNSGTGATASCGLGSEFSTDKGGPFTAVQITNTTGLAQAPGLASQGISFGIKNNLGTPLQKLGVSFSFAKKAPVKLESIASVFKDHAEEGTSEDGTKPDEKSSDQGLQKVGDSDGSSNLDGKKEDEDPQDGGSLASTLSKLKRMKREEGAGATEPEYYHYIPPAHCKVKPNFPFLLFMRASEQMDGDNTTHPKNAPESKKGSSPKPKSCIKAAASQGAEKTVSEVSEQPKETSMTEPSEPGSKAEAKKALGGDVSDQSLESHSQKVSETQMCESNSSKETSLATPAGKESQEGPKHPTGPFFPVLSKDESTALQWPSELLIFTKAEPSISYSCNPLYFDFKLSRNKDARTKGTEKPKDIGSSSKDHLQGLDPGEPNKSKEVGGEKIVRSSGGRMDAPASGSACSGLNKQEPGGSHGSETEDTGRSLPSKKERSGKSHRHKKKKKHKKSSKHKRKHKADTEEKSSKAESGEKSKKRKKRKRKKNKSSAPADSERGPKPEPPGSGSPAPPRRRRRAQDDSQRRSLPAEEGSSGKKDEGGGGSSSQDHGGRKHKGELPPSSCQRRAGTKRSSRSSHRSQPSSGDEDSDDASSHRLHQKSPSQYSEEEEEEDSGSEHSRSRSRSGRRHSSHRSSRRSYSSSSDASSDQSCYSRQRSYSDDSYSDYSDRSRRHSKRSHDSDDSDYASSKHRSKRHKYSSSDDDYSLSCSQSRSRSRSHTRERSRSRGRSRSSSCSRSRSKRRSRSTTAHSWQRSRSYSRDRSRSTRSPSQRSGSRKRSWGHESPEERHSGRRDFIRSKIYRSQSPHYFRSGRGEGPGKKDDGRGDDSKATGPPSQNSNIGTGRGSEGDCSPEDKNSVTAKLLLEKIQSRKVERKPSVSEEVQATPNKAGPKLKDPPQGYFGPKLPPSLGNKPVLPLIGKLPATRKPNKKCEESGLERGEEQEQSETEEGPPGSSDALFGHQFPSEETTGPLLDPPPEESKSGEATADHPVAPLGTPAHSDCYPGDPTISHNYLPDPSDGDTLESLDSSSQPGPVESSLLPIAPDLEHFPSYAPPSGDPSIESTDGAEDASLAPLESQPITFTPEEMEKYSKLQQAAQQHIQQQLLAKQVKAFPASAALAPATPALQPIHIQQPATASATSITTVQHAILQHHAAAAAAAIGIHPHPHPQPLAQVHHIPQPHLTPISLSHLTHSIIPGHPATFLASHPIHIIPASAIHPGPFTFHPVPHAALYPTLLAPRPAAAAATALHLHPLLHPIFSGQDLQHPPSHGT
UniProt Q9HC44: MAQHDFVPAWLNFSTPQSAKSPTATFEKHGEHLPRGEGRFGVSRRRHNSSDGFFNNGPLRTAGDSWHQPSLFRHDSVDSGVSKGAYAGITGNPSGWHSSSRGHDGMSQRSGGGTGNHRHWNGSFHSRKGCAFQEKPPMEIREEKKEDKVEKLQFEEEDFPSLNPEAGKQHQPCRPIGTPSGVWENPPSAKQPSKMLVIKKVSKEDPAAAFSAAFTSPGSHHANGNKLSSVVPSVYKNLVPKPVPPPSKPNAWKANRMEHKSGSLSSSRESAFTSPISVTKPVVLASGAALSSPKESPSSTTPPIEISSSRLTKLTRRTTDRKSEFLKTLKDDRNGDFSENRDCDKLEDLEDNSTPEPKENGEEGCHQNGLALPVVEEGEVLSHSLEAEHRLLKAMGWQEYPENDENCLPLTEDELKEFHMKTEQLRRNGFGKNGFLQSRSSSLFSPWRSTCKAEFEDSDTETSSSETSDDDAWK
UniProt Q13098: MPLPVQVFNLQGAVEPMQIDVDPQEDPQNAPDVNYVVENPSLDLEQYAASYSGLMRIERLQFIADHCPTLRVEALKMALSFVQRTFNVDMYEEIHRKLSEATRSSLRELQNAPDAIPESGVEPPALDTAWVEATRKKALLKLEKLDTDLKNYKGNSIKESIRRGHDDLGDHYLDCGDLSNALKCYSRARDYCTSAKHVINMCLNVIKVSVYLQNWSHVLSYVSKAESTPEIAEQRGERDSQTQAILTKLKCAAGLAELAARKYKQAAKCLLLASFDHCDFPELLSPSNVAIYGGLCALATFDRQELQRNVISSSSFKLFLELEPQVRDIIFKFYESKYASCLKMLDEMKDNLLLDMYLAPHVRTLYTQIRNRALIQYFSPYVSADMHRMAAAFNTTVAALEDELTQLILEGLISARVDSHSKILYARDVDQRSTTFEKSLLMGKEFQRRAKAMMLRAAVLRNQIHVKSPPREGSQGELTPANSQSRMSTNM
UniProt Q9UHW5, whole entry, looked up: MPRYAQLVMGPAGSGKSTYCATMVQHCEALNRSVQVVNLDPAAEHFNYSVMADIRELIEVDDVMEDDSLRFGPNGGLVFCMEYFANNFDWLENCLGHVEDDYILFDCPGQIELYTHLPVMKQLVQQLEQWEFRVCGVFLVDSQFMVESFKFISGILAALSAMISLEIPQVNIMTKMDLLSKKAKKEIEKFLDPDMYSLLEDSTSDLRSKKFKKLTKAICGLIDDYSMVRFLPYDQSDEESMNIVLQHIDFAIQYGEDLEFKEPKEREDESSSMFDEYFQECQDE
UniProt Q8N954: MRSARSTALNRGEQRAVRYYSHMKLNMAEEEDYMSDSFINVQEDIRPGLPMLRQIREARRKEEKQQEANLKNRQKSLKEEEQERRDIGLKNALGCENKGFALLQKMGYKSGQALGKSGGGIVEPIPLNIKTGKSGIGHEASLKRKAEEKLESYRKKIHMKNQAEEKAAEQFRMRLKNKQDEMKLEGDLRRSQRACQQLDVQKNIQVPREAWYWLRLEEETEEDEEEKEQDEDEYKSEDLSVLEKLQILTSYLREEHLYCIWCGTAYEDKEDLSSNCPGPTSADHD
UniProt P43304: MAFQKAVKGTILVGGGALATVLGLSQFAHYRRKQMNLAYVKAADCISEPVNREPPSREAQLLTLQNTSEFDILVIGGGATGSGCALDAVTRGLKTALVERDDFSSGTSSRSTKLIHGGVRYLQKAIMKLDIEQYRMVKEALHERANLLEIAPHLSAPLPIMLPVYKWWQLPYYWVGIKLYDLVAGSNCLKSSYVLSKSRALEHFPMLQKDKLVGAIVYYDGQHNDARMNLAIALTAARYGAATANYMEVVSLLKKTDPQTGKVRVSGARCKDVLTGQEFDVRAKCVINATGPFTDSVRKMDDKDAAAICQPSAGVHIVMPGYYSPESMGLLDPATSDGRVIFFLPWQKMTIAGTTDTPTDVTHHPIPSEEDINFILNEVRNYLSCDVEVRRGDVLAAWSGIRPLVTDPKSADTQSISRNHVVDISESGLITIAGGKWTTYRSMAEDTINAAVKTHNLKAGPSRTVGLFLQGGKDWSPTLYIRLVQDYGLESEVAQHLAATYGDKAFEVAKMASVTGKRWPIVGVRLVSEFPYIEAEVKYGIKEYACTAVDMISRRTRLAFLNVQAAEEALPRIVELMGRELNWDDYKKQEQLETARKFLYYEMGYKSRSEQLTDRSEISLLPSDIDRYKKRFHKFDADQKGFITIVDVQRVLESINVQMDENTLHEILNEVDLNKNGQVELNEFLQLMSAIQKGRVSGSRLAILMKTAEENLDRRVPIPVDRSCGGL
UniProt Q9Y4H4: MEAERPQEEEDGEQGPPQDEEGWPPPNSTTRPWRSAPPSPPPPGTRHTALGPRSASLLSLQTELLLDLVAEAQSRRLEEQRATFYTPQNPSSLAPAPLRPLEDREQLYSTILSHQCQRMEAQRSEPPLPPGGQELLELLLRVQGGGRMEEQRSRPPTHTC
UniProt P63218: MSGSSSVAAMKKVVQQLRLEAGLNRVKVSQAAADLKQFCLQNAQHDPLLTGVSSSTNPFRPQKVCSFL
UniProt Q14749: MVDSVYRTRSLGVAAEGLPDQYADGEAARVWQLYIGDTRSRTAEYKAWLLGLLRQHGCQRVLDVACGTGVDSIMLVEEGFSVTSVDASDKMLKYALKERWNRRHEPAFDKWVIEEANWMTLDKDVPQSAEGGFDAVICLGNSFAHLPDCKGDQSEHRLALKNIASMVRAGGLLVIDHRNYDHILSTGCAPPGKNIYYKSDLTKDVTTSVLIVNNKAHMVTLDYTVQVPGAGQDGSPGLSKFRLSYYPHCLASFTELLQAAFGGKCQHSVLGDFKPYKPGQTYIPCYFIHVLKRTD
UniProt Q49A26: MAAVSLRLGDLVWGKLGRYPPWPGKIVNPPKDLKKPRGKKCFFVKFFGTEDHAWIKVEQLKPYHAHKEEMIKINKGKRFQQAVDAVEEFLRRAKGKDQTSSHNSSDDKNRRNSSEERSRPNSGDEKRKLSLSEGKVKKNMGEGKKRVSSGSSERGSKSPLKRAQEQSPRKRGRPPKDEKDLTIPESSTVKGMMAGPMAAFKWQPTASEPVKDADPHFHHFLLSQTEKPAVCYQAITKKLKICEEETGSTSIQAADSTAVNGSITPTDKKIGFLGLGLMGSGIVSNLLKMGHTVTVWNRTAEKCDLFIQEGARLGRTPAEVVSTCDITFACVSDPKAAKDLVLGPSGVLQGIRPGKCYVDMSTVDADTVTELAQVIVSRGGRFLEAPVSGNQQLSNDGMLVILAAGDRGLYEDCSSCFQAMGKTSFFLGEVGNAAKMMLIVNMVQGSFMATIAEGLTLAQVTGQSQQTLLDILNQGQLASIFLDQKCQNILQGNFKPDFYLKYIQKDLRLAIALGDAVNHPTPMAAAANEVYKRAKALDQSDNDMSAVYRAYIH
UniProt P62879, whole entry, looked up: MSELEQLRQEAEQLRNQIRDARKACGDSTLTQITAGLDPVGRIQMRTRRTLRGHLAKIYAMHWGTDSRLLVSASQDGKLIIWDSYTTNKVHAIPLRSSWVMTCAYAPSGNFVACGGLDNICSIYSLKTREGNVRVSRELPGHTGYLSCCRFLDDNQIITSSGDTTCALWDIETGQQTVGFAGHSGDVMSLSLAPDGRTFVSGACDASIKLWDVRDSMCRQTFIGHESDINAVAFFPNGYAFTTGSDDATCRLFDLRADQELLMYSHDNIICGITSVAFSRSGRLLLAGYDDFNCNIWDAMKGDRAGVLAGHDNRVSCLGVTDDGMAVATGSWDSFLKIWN

Columns and labels:
Experiment in all cases: log2 fold change, soluble protein after heating vs DMSO (PISA); higher = thermal stabilisation; K562 cells, 10 uM, 30 min; active = over 0.2 and 3.5 SD of the protein, either way, in both replicates (recomputed)
[1] = compound: CC[C@@H]1C(=O)N(C)c2cnc(Nc3ccc(C(=O)NC4CCN(C)CC4)cc3OC)nc2N1C1CCCC1
In short: (§1)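 For each measurement, 10 μM compound was applied for 30 min to K562 cells at 2×10^6 cells/mL. Aliquots were heated for 3 min across 48°C-58°C, pooled, and extracted in PBS with 0.5% NP-40 at 4°C; the supernatant after 21,000xg for 90 min was soluble protein. This was quantified by TMTpro 16plex LC-MS/MS with channel sums equalised, and thermal stability was reported relative to control samples from duplicates, on a log2 fold-change scale.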

[2] = compound: CC[C@@H]1C(=O)N(C)c2cnc(Nc3ccc(C(=O)N[C@H]4CC[C@H](N5CCN(CC6CC6)CC5)CC4)cc3OC)nc2N1C(C)C [volasertib]
In short: as §1

[3] = compound: CC[C@H](C)N1C=C(C2=C(C=C(C=C21)C3=CN=C(C=C3)N4CCNCC4)C(=O)NCC5=C(C=C(NC5=O)C)C)C
In short: as §1

[4] = compound: CC[C@H](C)[C@@H](C(=O)N[C@@H]([C@@H](C)O)C(=O)N[C@@H](CC(C)C)C(=O)[C@]1(CO1)C)NC(=O)[C@H]([C@@H](C)CC)N(C)C(=O)C [epoxomicin]
In short: as §1

[5] = compound: CCn1c(C(=O)N(C2CC2)C2CC2)cc2c3c(ncn3C)c(Nc3cc(C)n(C)n3)nc21
In short: as §1

[6] = compound: CCn1cc(-c2ccnc3[nH]c(-c4cccc(CN(C)C)c4)cc23)c(-c2ccc(NC(=O)N(C)C)cc2)n1
In short: as §1

[7] = compound: CN(CCOC1=CC=C(C=C1)C[C@H]2C(=O)NC(=O)S2)C3=CC=CC=N3 (racemic) [rosiglitazone]
In short: as §1

[8] = compound: CN1CCC(CNc2ccc3ncc(-c4cccc(OC(F)(F)F)c4)n3n2)CC1
In short: as §1

[9] = compound: CN(C)CC(=O)Nc1ccc2[nH]c(=O)c3ccccc3c2c1
In short: as §1

[10] = compound: CN1C2=C(C3=C1C(=O)N(N=C3)CC4=CC(=CC=C4)N)SC(=C2)S(=O)C
In short: as §1

Target | log2 fold change [1] | log2 fold change [2] | log2 fold change [3] | log2 fold change [4] | log2 fold change [5] | log2 fold change [6] | log2 fold change [7] | log2 fold change [8] | log2 fold change [9] | log2 fold change [10]
GINM1 (UniProt Q9NU53) | inactive: -0.133 | inactive: 0.111 | inactive: -0.043 | inactive: -0.017 | inactive: -0.148 | inactive: 0.158 | inactive: -0.04 | inactive: -0.082 |  | 
GINS4 (UniProt Q9BRT9) | inactive: -0.064 | inactive: -0.069 | inactive: 0.096 | inactive: 0.038 | inactive: -0.001 | inactive: -0.064 | inactive: 0.029 | inactive: -0.02 | inactive: 0.018 | inactive: -0.056
GPR108 (UniProt Q9NPR9) | inactive: 0.045 | inactive: 0.085 | inactive: 0.055 | inactive: -0.017 | inactive: 0.01 |  | inactive: -0.001 |  | inactive: -0.069 | inactive: -0.112
GPD1L (UniProt Q8N335) | inactive: -0.013 | inactive: -0.059 | inactive: 0.024 | inactive: -0.013 | inactive: -0.006 | inactive: -0.07 | inactive: -0.025 | inactive: -0.026 | inactive: 0.006 | inactive: -0.081
GRK2 (UniProt P25098) | inactive: -0.025 | inactive: -0.08 | inactive: 0.019 | inactive: 0.045 | inactive: -0.006 | inactive: -0.045 | inactive: 0.053 | inactive: -0.082 | inactive: 0.003 | inactive: -0.051
GMFB (UniProt P60983) | inactive: -0.035 | inactive: 0.076 | inactive: -0.005 | inactive: 0.007 | inactive: 0.034 | inactive: 0.035 | inactive: -0.022 | inactive: 0.006 | inactive: -0.021 | inactive: -0.051
GNB1 (UniProt P62873) | inactive: 0.068 | inactive: 0.073 | inactive: -0.024 | inactive: 0.017 | inactive: -0.005 | inactive: -0.032 | inactive: -0.017 | inactive: 0.242 | inactive: 0.014 | inactive: -0.185
GINS3 (UniProt Q9BRX5) | inactive: -0.065 | inactive: -0.139 | inactive: 0.025 | inactive: 0.075 | inactive: -0.02 | inactive: -0.01 | inactive: 0.059 | inactive: -0.076 | inactive: -0.003 | inactive: -0.02
GPN1 isoform 5 (UniProt Q9HCN4) | inactive: -0.02 | inactive: 0.054 | inactive: -0.065 | inactive: -0.011 | inactive: 0.021 | inactive: -0.055 | inactive: -0.036 | inactive: -0.045 | inactive: -0.002 | inactive: -0.007
GPATCH8 (UniProt Q9UKJ3) | inactive: -0.005 | inactive: -0.063 | inactive: -0.047 | inactive: 0.055 | inactive: -0.041 | inactive: 0.073 | inactive: 0.023 | inactive: 0.058 | inactive: -0.03 | inactive: 0.014
GMPPA (UniProt Q96IJ6) | inactive: -0.025 | inactive: -0.031 | inactive: -0.019 | inactive: 0.016 | inactive: -0.009 | inactive: -0.045 | inactive: 0.039 | inactive: -0.01 | inactive: 0.004 | inactive: -0.055
GPBP1L1 (UniProt Q9HC44) | inactive: -0.018 | inactive: -0.006 | inactive: -0.05 | inactive: 0.083 | inactive: 0.048 | inactive: -0.094 | inactive: 0.026 | inactive: -0.001 | inactive: -0.008 | inactive: 0.005
GLO1 (UniProt Q04760) | inactive: -0.008 | inactive: 0.068 | inactive: -0.043 | inactive: 0.021 | inactive: 0.05 | inactive: -0.004 | inactive: -0.044 | inactive: 0.011 | inactive: -0.004 | inactive: -0.051
GPS1 isoform 7 (UniProt Q13098) | inactive: -0.012 | inactive: -0.026 | inactive: -0.007 | inactive: 0.033 | inactive: 0.006 | inactive: -0.02 | inactive: 0.013 | inactive: 0.017 | inactive: -0.012 | inactive: -0.041
GPN3 isoform 2 (UniProt Q9UHW5) | inactive: 0.08 | inactive: 0.131 | inactive: -0.041 | inactive: -0.028 | inactive: -0.002 | inactive: -0.016 | inactive: 0.026 | inactive: 0.064 | inactive: 0.011 | inactive: -0.081
GPATCH11 (UniProt Q8N954) | inactive: -0.081 | inactive: -0.162 | inactive: -0.017 | inactive: 0.03 | inactive: -0.049 | inactive: 0.032 | inactive: -0.012 | inactive: -0.06 | inactive: -0.049 | inactive: -0.009
GPD2 (UniProt P43304) | inactive: 0.048 | inactive: 0.03 | inactive: -0.032 | inactive: -0.007 | inactive: 0.006 | inactive: 0.005 | inactive: -0.014 | inactive: 0.023 | inactive: -0.018 | inactive: -0.039
GOSR1 (UniProt O95249) | inactive: -0.077 | inactive: -0.025 | inactive: -0.034 | inactive: 0.023 | inactive: 0.016 | inactive: -0.024 | inactive: 0.021 | inactive: -0.185 | inactive: -0.004 | inactive: -0.027
GPSM3 (UniProt Q9Y4H4) | inactive: 0.073 | inactive: -0.22 | inactive: -0.021 |  |  |  |  |  | inactive: 0 | inactive: -0.333
GNS (UniProt P15586) | active: -0.272 | inactive: -0.181 | inactive: -0.045 | inactive: -0.012 |  | inactive: -0.003 |  | active: -0.408 | inactive: -0.007 | inactive: -0.016
GNG5 (UniProt P63218) | inactive: 0.105 | inactive: 0.033 | inactive: -0.117 | active: 0.556 |  | inactive: 0.004 |  | inactive: 0.144 | inactive: -0.07 | inactive: -0.014
GOLGA7B (UniProt Q2TAP0) | inactive: 0.077 | inactive: 0.153 | inactive: -0.031 |  | inactive: 0.144 |  | inactive: -0.137 |  | inactive: -0.066 | inactive: -0.004
GNMT (UniProt Q14749) | inactive: 0.125 | inactive: 0.246 | inactive: 0.099 |  | inactive: 0.107 | inactive: 0.166 | inactive: 0.204 | inactive: -0.104 | inactive: -0.09 | inactive: 0.178
GLYR1 (UniProt Q49A26) | inactive: 0.099 | inactive: 0.054 | inactive: 0.026 | inactive: -0.074 |  | inactive: 0.026 |  | inactive: 0.041 | inactive: -0.038 | inactive: -0.019
GNAI3 (UniProt P08754) | inactive: 0.089 | inactive: 0.147 | inactive: -0.011 | inactive: 0.014 |  | inactive: -0.071 |  | inactive: 0.075 | inactive: -0.012 | inactive: -0.046
GMEB1 (UniProt Q9Y692) | inactive: -0.071 | active: -0.281 | inactive: 0.039 | inactive: 0.059 |  | inactive: -0.05 |  | inactive: -0.014 | inactive: -0.045 | inactive: -0.07
GNB2 (UniProt P62879) | inactive: 0.122 | inactive: 0.103 | inactive: 0.003 | inactive: 0.046 |  | inactive: -0.023 |  | active: 0.3 | inactive: -0.042 | inactive: -0.079
GPS2 (UniProt Q13227) | inactive: 0.151 | inactive: -0.072 | inactive: 0.082 | inactive: 0.016 |  |  |  |  | inactive: 0.068 | 
GLRX3 (UniProt O76003) | inactive: -0.164 | active: -0.331 | inactive: 0.066 | inactive: 0.018 |  | inactive: -0.025 |  | inactive: -0.03 | inactive: -0.011 | inactive: -0.03
GNAS (UniProt Q5JWF2) | inactive: 0.125 | inactive: 0.164 | inactive: 0.032 | inactive: 0.011 |  | inactive: 0 |  | inactive: 0.057 | inactive: -0.02 | inactive: -0.03

Given as tab-separated lines: entries from further up
Target	log2 fold change [1]	log2 fold change [2]	log2 fold change [3]	log2 fold change [4]	log2 fold change [5]	log2 fold change [6]	log2 fold change [7]	log2 fold change [8]	log2 fold change [9]	log2 fold change [10]
GPS1 isoform 7 (UniProt Q13098)	inactive: -0.012	inactive: -0.026	inactive: -0.007	inactive: 0.033	inactive: 0.006	inactive: -0.02	inactive: 0.013	inactive: 0.017	inactive: -0.012	inactive: -0.041
GPN3 isoform 2 (UniProt Q9UHW5)	inactive: 0.08	inactive: 0.131	inactive: -0.041	inactive: -0.028	inactive: -0.002	inactive: -0.016	inactive: 0.026	inactive: 0.064	inactive: 0.011	inactive: -0.081
